Data from US8455666B1, “Vegetable oil esterified lipoic acid” (The United States of America, as represented by the …, priority 2011, dated 2013).

Key:
[1] = Vesicle leakage (calcein-cobalt) assay
Experimental: Lipid Preparation and Formation of Unilamellar Phospholipid Vesicles. Lipid mixtures and vesicles were prepared as described previously (Laszlo et al. 2010. ibid). Lipids were prepared from appropriate amounts of DOPC in chloroform and LDOG-SS- or LDOG-SH (at 1- or 5-mol % of total lipids) in ethanol added to clean amber vials and then gently mixed. Solvents were removed under a stream of argon and then vacuum. The dried lipids were rehydrated in the appropriate buffer and mixed periodically to form multilamellar phospholipid vesicles. The vesicles were subjected to freeze-thaw cycles and then extrusion to form unilamellar vesicles (approx. 125 nm in diameter). Vesicles were covered with argon, protected from light and stored at 4° C. until used. DOPC vesicles incorporating 1- or 5-mol % ALA or DHLA were similarly produced.
Vesicle Leakage (Calcein-Cobalt). Vesicles with and without LDOG were evaluated for membrane integrity using a leakage assay described previously (Evans. Room-temperature ionic liquid cations act as short-chain surfactants and disintegrate a phospholipid bilayer. Colloid. Surface. A 2006, 274:11-17; and Laszlo et al. 2010. ibid). Briefly, the leakage assay was designed such that the low fluorescent signal of the entrapped calcein-cobalt complex increased as vesicles leaked their contents and cobalt was stripped from calcein by external EDTA. Vesicle leakage was monitored with a fluorometer. Samples were continuously stirred in 1-cm path length quartz cuvettes 37° C., with measurements taken for 30 min at 5-s intervals. Experiments were conducted in triplicate. Leakage percentage (L) was determined from the intensity of the fluorescent signal, 100×(Ft−Fo)/(Fmax−Fo), where Ft was the fluorescent signal over time, Fo was the extrapolated initial signal at time zero, and Fmax was the fluorescent signal at the end of the experiment after rupture by addition of Triton X-100 solution. The apparent rate constant k (ms^−1) and maximum extent of vesicle leakage (L∞), prior to vesicle rupture, were obtained by fitting to the equation: Lt=L∞(1−exp(−kt)).

[2] = Fluorescence quenching of Bodipy-labeled fatty acids in DOPC vesicles (lipoyl moiety location); settings: increasing concentration (10-50 μM) in 950 μM DOPC vesicles
Text: Lipoic Moiety Location Using Bodipy-Labeled Fatty Acid. Prior studies determined drug location within phospholipid membrane using a series of n-(9-anthroyloxy) stearic acids (Ferreira et al., Partition and location of nimesulide in epc liposomes: A spectrophotometric and fluorescence study. Analytical and Bioanalytical Chemistry 2003, 377:293-298; and Ferreira et al., Effects of diclofenac on epc liposome membrane properties. Anal Bioanal Chem 2005, eFIRST) in which the anthroyloxy moiety is inserted at the 2, 6, 9, or 12 carbon position on the fatty acid chain. Fluorescence quenching of the anthroyloxy moiety in the presence of increased quencher concentrations was used to infer quencher position within the bilayer. This is based on the concept that quenching occurs between the anthroyloxy group and the nearest quencher only. In this current study, the membrane location of the lipoic moiety of LDOG-SS- and LDOG-SH was similarly determined using a fatty acid labeled with Bodipy® 500/510 located at different positions of the fatty acid. […] Fluorescence emission spectra were recorded using 509 nm excitation. Relative fluorescence (F/F0) was determined, where F0 was the fluorescence value at 517 nm for vesicles without any lipoyl lipid present and F was the 517 nm emission peak value of vesicles with either lipoyl lipid present. […]

[3] = antioxidant amount 1 mol % in DOPC vesicles, 37° C.
[4] = antioxidant amount 5 mol % in DOPC vesicles, 37° C.

Molecule: O=C(O)CCCC[C@@H](S)CCS (racemic) [DHLA, dihydrolipoic acid]
- leakage rates compared with unaugmented liposomes ([1]; 5-mol % inclusion level): five-fold lower
- maximum leakage (L∞) [1, 3]: 0.7 ± 0.3%
- maximum leakage (L∞) [1, 4]: 1.5 ± 0.6%

Molecule: O=C(O)CCCCC1CCSS1 (stereo not drawn) [ALA, α-Lipoic acid]
- maximum leakage (L∞) [1, 3]: 7.6 ± 2.1%
- maximum leakage (L∞) [1, 4]: 4.7 ± 0.7%

Molecule: dihydrolipoyl dioleoylglycerol [LDOG—SH]
- maximum leakage (L∞) [1, 3]: 6.1 ± 0.5%
- maximum leakage (L∞) [1, 4]: 3.1 ± 0.2%
- quenching of C8,C5-Bodipy fluorescence [2]: decreased moderately

Molecule: lipoyl dioleoylglycerol [LDOG—SS—]
- leakage rates compared with unaugmented DOPC vesicles ([1]; 37° C., in words): lowered an order of magnitude
- maximum leakage (L∞) [1, 3]: 4.2 ± 0.7%
- maximum leakage (L∞) [1, 4]: 3.6 ± 0.5%
- quenching of C8,C5-Bodipy fluorescence [2]: decreased moderately
